Measurements from PubChem BioAssay AID1487 (National Center for Advancing Translational Sciences (NCATS), 2009).
Hit rate of the full screen: of about 200,000 compounds, about 25 (0.01%) were called active. Inconclusive results, whose numbers are uncertain, are shown with a selection of clear calls. The call rests on the fitted dose curve; in most records, active means well fitted inhibition curve with a large enough effect in the signal ratio, with a control signal flat (not every such curve was filed as active); inconclusive means small, poorly fitted or top-dose-only effect, or effect the other way, or a change in a side signal; inactive means flat fitted curve, though single readings scatter; the % refers to the signal ratio. Potencies of inconclusive entries are doubtful fits and often do not repeat.

Assay: qHTS Assay for Modulators of Lamin A Splicing
Conditions: HeLa LMNA splicing GFP/RFP minigene ratio, 48 h; ratio change, negative = inhibition: at 46.1 µM (top of the series) unless noted
Method in brief: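 S3 HeLa cells stably expressing lamin A-EGFP splicing minigene plus DsRed2, 600 cells/well, 48 h compound exposure at 37C. Laser-scanning cytometry; analysed as GFP (500-530 nm)/RFP (575-640 nm) total intensity ratio; 0.5% DMSO vehicle.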
On the % scale 0 is the no-effect control and ±100 the full control effect; potency means the concentration at half of the fitted maximal effect.

Row | Compound | ratio change, negative = inhibition | Potency
1 | O=C(C1CCC(CNc2c(N3CCCCC3)c(=O)c2=O)CC1)N1CCc2ccccc2C1 (stereo not given) | inactive: -15.2% | –
2 | COc1ccc(NC(=O)c2cccs2)cc1 | inactive: -9.54% | –
3 | CNC(=O)CSc1nnc(-c2ccc(S(=O)(=O)N3CCCC3)cc2)n1-c1cccc(C)c1C | inactive: 0.238% | –
4 | Cc1cc(C(=O)OCC(=O)N2CC(=O)Nc3ccccc32)c(C)n1-c1ccc(F)cc1 | – | inconclusive: 12.6 µM [falling, partial curve]
5 | COc1c2occc2c(OC)c2c(=O)cc(C)oc12 | inconclusive: -18.1% | –
6 | COc1ccc2[nH]cc(CCNc3ccnc(-c4ccoc4)n3)c2c1 | inconclusive: -14.9% | –
7 | CN(C)c1ccc(P(=O)(CC(=O)N/N=C/c2ccc(C#N)cc2)OCCCl)cc1 (stereo not given) | inconclusive: 13.2% [at 46 µM] | –
8 | O=C(NCc1ccco1)C1c2ccccc2Oc2ccccc21 | inactive: 11.1% | –
9 | CCOC(=O)c1ccc(NC(=S)N(CCCN2CCCC(C)C2)Cc2cccs2)cc1 (stereo not given) | – | inconclusive: 28.2 µM [inhibitor, single point]
10 | CCOC(=O)c1c(-n2c(C)cc(C=O)c2C)sc2c1CCCC2 | inactive: 0.707% | –
11 | Cc1cccc(NC(=O)Cn2cnc3sc(C)c(S(=O)(=O)N4CCC(C)CC4)c3c2=O)n1 | inactive: -8.46% | –
12 | CCc1nc(Cl)c(C#N)c2c1CCCC2 | inactive: 11% | –
13 | CC(Sc1nc2cc([N+](=O)[O-])ccc2n1-c1ccc(F)cc1)C(=O)NCc1ccc2c(c1)OCO2 (stereo not given) | inactive: -10.9% | –
14 | Fc1ccc(-c2cc3nc(-c4ccccc4)cc(N4CCN(CCN5CCOCC5)CC4)n3n2)cc1 | inconclusive: -28.1% | –
15 | Cc1ccc(C(=O)NC(=O)OCCn2c(C)cnc2[N+](=O)[O-])cc1 | inactive: -4.3% [at 9.22 µM] | –
16 | CN(C)c1ccc(NC(=O)Cn2cc(S(=O)(=O)Cc3ccccc3Cl)c3ccccc32)cc1 | inconclusive: -22.5% [at 46 µM] | –
17 | Cc1c(C(=O)O)cccc1-c1ccc(/C=N/Nc2ccc(Br)cc2)o1 | inconclusive: -48.4% | –
18 | Nc1cccc(-c2ccc(CO)o2)c1 | inconclusive: 0.0741% [at 46 µM] | –
19 | CCn1c(CNC(=O)c2ccccc2F)nnc1SCc1nc2ccccc2c(=O)[nH]1 | inconclusive: -2.47% [at 46 µM] | –
20 | Cc1ccc(NC(=O)c2cc(-c3ccccc3)nn2-c2ccccc2)c(Br)c1 | – | inconclusive: 35.5 µM [fluorescent, single point]
21 | O=C(Nc1ccc(C2=NCCN2)cc1)c1ccc(C(=O)Nc2ccc(C3=NCCN3)cc2)c(Cl)c1 | inconclusive: 12.7% [at 46 µM] | –
22 | CCNC(=S)NNC(=O)c1csc2c1CCC(C)C2 (stereo not given) | inactive: -1.36% | –

Row | Compound | ratio change, negative = inhibition | Potency
23 | O=C(O)c1ccc(Sc2nnc(-c3cccc(Br)c3)o2)c([N+](=O)[O-])c1 | – | inconclusive: 35.5 µM [falling, single point]
24 | CCOC(=O)C1=C(C)N=C2c3ccccc3C(=O)C2C1c1ccccc1 (stereo not given) | inactive: 3.47% | –
25 | CN(C)c1ccc(-c2nc(N(C)Cc3ccco3)c3ccccc3n2)cc1 | inconclusive: -30.7% | –
26 | O=[N+]([O-])c1cc(S(=O)(=O)N2CCCC2)ccc1N/N=C/c1cccnc1 | inactive: -12.5% | –
27 | COc1ccc(CC(=O)NNS(=O)(=O)c2ccc3ccccc3c2)cc1OC | inconclusive: -16.9% | –
28 | COc1ccc(Cl)cc1C(=O)NCC(c1ccc(N(C)C)cc1)N1CCCC1 (stereo not given) | inactive: 1.61% [at 46 µM] | –
29 | COc1cccc(N/C=C/C(=O)c2ccc(Cl)cc2)c1 | inconclusive: 7.05% | –
30 | Cc1[nH]c(=O)[nH]c(=O)c1NC(=O)c1sc2nc3c(C)cccc3cc2c1N | inactive: 2.66% | –
31 | COc1ccc(NC(=O)CN2CCN(C3c4ccccc4-c4ccccc43)CC2)c(OC)c1 | inactive: 6.28% | –
32 | COc1ccc(C(=O)N/N=C(/C)c2ccc(N3CCCCC3)cc2)cc1 | inactive: 3.06% | –
33 | O=C(/C=C/c1ccc(O)c(O)c1)OCCc1ccccc1 | inconclusive: -19% | –
34 | COc1cccc(NC(=O)Cn2nc(-c3ccncc3)ccc2=O)c1 | inconclusive: -14.4% [at 46 µM] | –
35 | CC1CCCCN1CCCNC(=O)c1sc2ncccc2c1-n1cccc1 (stereo not given) | inactive: 5.67% [at 46 µM] | –
36 | COc1ccc(Cn2c(CNS(=O)(=O)c3ccc(Cl)s3)nc3cccnc32)cc1 | inconclusive: 14.9% [at 46 µM] | –
37 | COc1ccccc1CNC(=O)c1c(O)c2cc(OC)c(OC)cc2[nH]c1=O | inactive: 0.434% | –
38 | COc1ccc(NS(=O)(=O)c2ccc(O)c(NC(=O)c3ccc(S(=O)(=O)N4CCCCCC4)cc3)c2)cc1 | – | inconclusive: 2.82 µM [falling, full curve]
39 | CCC(OC(=O)c1cccs1)C(=O)NCc1ccco1 (stereo not given) | inactive: -11.6% | –
40 | COc1cc2c(C(=O)Nc3ccc4c(c3)OCO4)cn(CC(C)C)c(=O)c2cc1OC | inactive: 5.18% | –
41 | Cc1cccc(OCCCCc2c(C)n[nH]c2C)c1C | – | inconclusive: 35.5 µM [falling, single point]
42 | CN(C)c1ccc(S(=O)(=O)N(C)C)cc1[N+](=O)[O-] | inconclusive: -3.12% [at 46 µM] | –
43 | Cc1cc(C(=O)CCl)c(C)n1-c1cccc([N+](=O)[O-])c1 | inactive: -12% [at 46 µM] | –
44 | COc1ccc(CCNC(=O)c2cc3c(=O)n4ccccc4nc3n2C)cc1 | inconclusive: -24.4% [at 46 µM] | –

Row | Compound | ratio change, negative = inhibition | Potency
45 | CC(=O)OCC(CCn1cnc2cnc(N)nc21)COC(C)=O | inconclusive: 16.6% | –
46 | COC(=O)c1cn(-c2ccccc2)nc1-c1ccncc1 | inactive: -3.84% | –
47 | CCCc1ccc(C(=O)NNc2ccc(F)cc2)cc1 | – | inconclusive: 12.6 µM [activator, partial curve]
48 | O=C1c2cccc3c(Cl)ccc(c23)C(=O)N1O | inconclusive: -24.6% | –
49 | Cc1ccc(NC(=O)OC(C)CNC(=O)Oc2cccc(C)c2)cc1 (stereo not given) | inactive: 14% [at 46 µM] | –
50 | O=C(NCCCc1ccccc1)c1cccc([N+](=O)[O-])c1 | inconclusive: 7.53% | –
51 | Cn1cc(S(=O)(=O)c2ccccc2)c(=O)c2cc(F)c(N3CCCC3)cc21 | inactive: -6.79% [at 46 µM] | –
52 | CSc1ccccc1NC(=O)CN1CCCCC1 | inconclusive: -5.74% [at 46 µM] | –
53 | CCOc1ccc(C2CC(c3ccccc3C)n3nc(N)nc3N2)cc1 (stereo not given) | inactive: -6.34% | –
54 | CCN(CC)c1ccc(SS(=O)(=O)O)cc1 | inactive | –
55 | O=C1S/C(=C\c2ccc(O)c([N+](=O)[O-])c2)C(=O)N1Cc1cccc([N+](=O)[O-])c1 | inconclusive: -9.36% [at 46 µM] | –
56 | CCOC(=O)c1cnn(-c2ccccc2)c1NC(=O)c1ccccc1C | inconclusive: 2.75% | –
57 | CC(C)CCNc1c(-c2cccs2)nc2ccccn12 | inconclusive: -1.3% [at 46 µM] | –
58 | COc1ccc(CSC(=N)N)cc1[N+](=O)[O-] | – | inconclusive: 35.5 µM [falling, single point]
59 | O=[N+]([O-])c1ccc(Sc2nnnn2-c2ccccc2)c(Cl)c1 | – | inconclusive: 11.2 µM [falling, partial curve]
60 | O=C(NCCc1ccccc1F)C1CCCN1S(=O)(=O)c1ccccc1 (stereo not given) | inconclusive: -29.9% | –
61 | COc1ccc(Br)cc1C(=O)Nc1ccc(C(=O)NCC(C)C)cc1 | inactive: -9.55% [at 46 µM] | –
62 | CCCc1nnc(SCC(=O)N2CCCCC2C)n1CCOC (stereo not given) | inconclusive: 22.2% [at 46 µM] | –
63 | O=C(Nc1cc(C(F)(F)F)ccc1N1CCOCC1)c1cccc(F)c1 | inconclusive: 1.45% | –
64 | Cc1nn(C)c(C)c1S(=O)(=O)N1CCCC(C(=O)NCC2COc3ccccc3O2)C1 (stereo not given) | inactive: 1.97% | –
65 | CCC(CC)C(=O)N1CCc2cc(OC)c(OC)cc2C1COc1ccccc1OC (stereo not given) | inactive: -8.02% [at 46 µM] | –
66 | CCOC(=O)c1ccc2cccc(C)n2c1=O | inactive: -2.84% | –

Structures from the list above that have a cyano group (2):
Row | Compound | ratio change, negative = inhibition | Potency
7 | CN(C)c1ccc(P(=O)(CC(=O)N/N=C/c2ccc(C#N)cc2)OCCCl)cc1 (stereo not given) | inconclusive: 13.2% [at 46 µM] | –
12 | CCc1nc(Cl)c(C#N)c2c1CCCC2 | inactive: 11% | –

Continued.

Row | Compound | ratio change, negative = inhibition | Potency
67 | CCc1ccc(CNC(=O)c2ccc3c(c2)nc2n3CCOC2)cc1 | inconclusive: -11% [at 46 µM] | –
68 | O=C(NNC(=S)NC(=O)C12CC3CC(CC(C3)C1)C2)c1ccncc1 | – | inconclusive: 35.5 µM [falling, single point]
69 | O=C(NC(=O)c1ccccc1)OCCN1C(=O)c2ccccc2C1=O | inconclusive: -0.721% [at 46 µM] | –
70 | CCCC(=O)O[C@H]1C[C@@H](C)N(C(=O)c2ccccc2)c2ccc(C)cc21 | – | inconclusive: 35.5 µM [fluorescent, single point]
71 | COc1ccc(NS(=O)(=O)c2ccc3nc(COc4ccc5ccccc5c4)[nH]c3c2)cc1 | – | inconclusive: 25.1 µM [inhibitor, partial curve]
72 | CCOC(=O)NC(=O)/C(C#N)=N/Nc1ccc(F)cc1 | inactive: 1.3% | –
73 | COc1cccc(CNc2ncnc3onc(-c4ccc(F)cc4)c23)c1 | inactive: -5.08% [at 46 µM] | –
74 | CC(C)(C)c1ccc(C(=O)NCC(=O)OCC(=O)c2ccc3c(c2)-c2ccccc2C3)cc1 | inconclusive: -26% | –
75 | COc1ccc(-c2cc(C(C)=O)c(C)n2CCC(=O)Nc2cc(C)ccc2OC)cc1 | inactive: -7.9% [at 46 µM] | –
76 | O=C1c2ccccc2C(=O)c2c1ccc(O)c2O | inconclusive: -9.52% | –
77 | Cc1ccc(NC(=S)N/C(=N/S(=O)(=O)c2ccccc2)c2ccccc2)cc1 | inactive: -3.43% | –
78 | O=C(c1ccccc1)N1CCC(c2nc(-c3ccc(S(=O)(=O)N4CCOCC4)cc3)no2)CC1 | – | inconclusive: 11.2 µM [falling, single point]
79 | O=C(NCCN1CCOCC1)c1ccc(=O)oc1 | inactive: 7.17% | –
80 | CCOC(=O)c1sc2nc3c(SCC(=O)O)cc(C(=O)c4ccccc4O)cn3c(=O)c2c1C | inconclusive: 13.1% [at 46 µM] | –
81 | COc1ccc(NC(=S)NC2CCN(Cc3ccccc3)CC2)cc1OC | inactive: 18.2% [at 46 µM] | –
82 | CCOC(=O)C1CCN(CCC(=O)Nc2cccc(Cl)c2C)CC1 | inactive: -7.93% | –
83 | CCN(CC)C(=O)CC(c1ccccc1)c1ccco1 (stereo not given) | inactive: 5.67% | –
84 | C=CCn1c(-c2csc(-c3ccc(OC)c(OC)c3)n2)n[nH]c1=S | inconclusive: 55.9% [at 46 µM] | –
85 | Cc1ccc(C)c(Cn2c(=O)cc(C(F)(F)F)c3c(C)nn(C)c32)c1 | inconclusive: -28.7% [at 46 µM] | –
